Values of other authors in US7858579B2, “Thermoprotective compositions of pkg pathway inhibitors and method of use thereof” (priority 2005, dated 2010).
At least one structure is not confirmed: it was looked up by name or label, or the drawing left a doubt.

System: febrile seizures
Details: reduced from 25 per 100 children; cited from earlier work

CCC1(c2ccccc2)C(=O)NC(=O)NC1=O [phenobarbital]
incidence of febrile seizures: five
